From PubChem BioAssay AID1347076 (National Center for Advancing Translational Sciences (NCATS), 2019)
The campaign covered roughly 400,000 compounds. About 13,000 (3.2%) were called active. The shares of active, inactive and inconclusive entries below differ from those in the screen. Calls follow the shape of the dose curve; as a rule, active = well fitted cell-killing curve with a large enough effect; inconclusive = small, poorly fitted or top-dose-only effect, or effect the other way; inactive = flat fitted curve, though single readings scatter. A potency beside an inconclusive call is a rough fit, not a confirmed value.

Assay: qHTS assay for MDR1-selective chemotherapeutics: Primary screen using the drug-selected MDR subline cells KB-V1; also: nearly all actives have a fitted effect of over 60% in size
Conditions: KB-V1 MDR cells viability, CellTiter-Glo, 72 h; activity change, negative = cytotoxicity: at 46.1 µM (top of the series)
Summary of the method: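 Luminescent ATP read-out (CellTiter-Glo, 10 min) measures survival of drug-selected KB-V1 MDR cells after 72 h, 37 degrees C compound exposure. Medium: phenol-red-free DMEM, 10% FBS. Values from fitted concentration-response curves.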
% is scaled to controls: 0 for no effect and ±100 for the full control effect; potency is read from the fitted curve at half-maximal effect.

| Compound | activity change, negative = cytotoxicity | Potency |
| --- | --- | --- |
| Cc1cc(=O)n(Cc2c(F)cccc2Cl)c2c1c(C)nn2-c1cccc(F)c1 | inactive: 16.3% | – |
| Clc1ccc(COn2c(-c3ccccc3)nc3ccccc32)cc1 | – | inconclusive: 25.9 µM [cytotoxic, partial curve] |
| CCOC(=O)N1CCN(C(=O)/C(=C/c2ccc(Br)cc2)NC(=O)c2ccc(OC)cc2)CC1 | – | active: 18.4 µM |
| CN(CC(=O)Nc1ccccc1Br)C(=O)C(Cc1ccccc1)NC(=O)c1ccccc1 (stereo unspecified) | – | inconclusive: 1.3 µM [cytotoxic, full curve] |
| Cc1ccc(-n2nc3c(N4CCC(C(=O)NCc5ccccc5C)CC4)nnc(C)c3c2C)cc1 | inconclusive: -10.6% | – |
| Cc1ccc(Cl)cc1N1CCN(C(=O)CCS(=O)(=O)c2ccc3c(c2)NC(=O)CO3)CC1 | inactive: -7.55% | – |
| CCOc1ccc(NC(=O)Cn2c(=O)n(CC3CCC(C(=O)NCCc4ccccc4)CC3)c(=O)c3ccccc32)cc1 (stereo unspecified) | – | inconclusive: 2.31 µM [rising, partial curve, poor fit] |
| COc1ccc(CNC(=O)N2[C@H]3CC[C@@H]2C=C(c2ccc(F)cc2OCc2ccccc2)C3)cc1OC | – | inconclusive: 16.4 µM [cytotoxic, single point] |
| Cn1ccnc1C1CCCCN1Cc1nc(Cc2cccc(C(F)(F)F)c2)no1 (stereo unspecified) | – | inconclusive: 18.4 µM [cytotoxic, single point] |
| COc1cccc(C2CCCN2Cc2nc(-c3sccc3C)oc2C)c1 (stereo unspecified) | inactive: -3.13% | – |
| COc1ccc(-c2cn3cc(Cl)ccc3n2)cc1OC | – | active: 16.4 µM |
| CCN(CC)C(=O)c1sc(NC(=O)c2cccnc2)c(C(=O)OC)c1C | inactive: -1.14% | – |
| CC1(C)CC(NC(=O)c2sc3cc(Cl)ccc3c2Cl)CC(C)(C)N1 | – | active: 18.4 µM |
| CC(C)(C)OC(=O)N1CCC(N2CCN(Cc3ccccc3)C(=O)C2=O)CC1 | inactive: 12.2% | – |
| CC1(C)Oc2ccc3ccc(=O)oc3c2/C(=C/N)C1=O | – | inconclusive: 20.6 µM [cytotoxic, single point] |
| CCCN(CCC)S(=O)(=O)c1ccc(C(=O)Nc2nnc(-c3cc(OC)cc(OC)c3)o2)cc1 | – | inconclusive: 25.9 µM [cytotoxic, single point] |
| COc1ccc(OC)c(Nc2nc(=O)c3cccnc3s2)c1 | – | inconclusive: 14.6 µM [rising, partial curve, poor fit] |
| CC1CCC/C=C/C(=O)c2c(O)cc(O)cc2CC(=O)O1 (stereo unspecified) | – | inconclusive: 13 µM [cytotoxic, partial curve, poor fit] |
| Cc1c(CNC(C)CCc2ccccc2)c(C(=O)O)c(C)n1Cc1ccc(F)cc1 (stereo unspecified) | inactive: 12.4% | – |
| CN(C)S(=O)(=O)N(CC(=O)NCCSCc1ccc(Cl)cc1)c1ccccc1 | – | inconclusive: 29.1 µM [cytotoxic, single point] |
| CC(=O)Nc1ccc(C2=NN(c3ccccc3)C(c3cccs3)C2)cc1 (stereo unspecified) | inactive: 3.71% | – |
| CCCC(=O)c1ccc(N2CCN(C(=O)c3ccccc3Br)CC2)c(F)c1 | – | inconclusive: 29.1 µM [cytotoxic, single point] |
| Cc1ccccc1NC(=O)CN(C)S(=O)(=O)c1ccc2c(c1)n(C)c(=O)c(=O)n2C | – | inconclusive: 29.1 µM [rising, single point] |
| CCCCc1c(-c2ccccc2OC)ncn1CCc1cccc(Cl)c1 | – | active: 14.6 µM |

| Compound | activity change, negative = cytotoxicity | Potency |
| --- | --- | --- |
| C/C(=N\NC(=O)c1cccc(N/N=C(\C)c2ccco2)c1)c1ccco1 | – | inconclusive: 29.1 µM [rising, single point] |
| CCN1CCN(C(=O)C2CCN(S(=O)(=O)c3cc(Cl)ccc3Cl)CC2)CC1 | – | inconclusive: 16.4 µM [cytotoxic, single point] |
| COc1ccc(CC(=O)NCCS(=O)(=O)N2CCN(c3ccccc3OC)CC2)cc1 | – | inconclusive: 16.4 µM [cytotoxic, partial curve, poor fit] |
| O=C1N=C(N2CCCC2)S/C1=C\c1cccc(Br)c1 | – | inconclusive: 29.1 µM [cytotoxic, single point] |
| COC(=O)c1ccc(COc2ccccc2/C=N/NS(=O)(=O)c2ccc(C)cc2)cc1 | – | active: 18.4 µM |
| CSc1nsc(SC)c1NC(=O)Nc1ccccn1 | – | active: 14.6 µM |
| CCCCn1nc(C(=O)N(C)CC(=O)Nc2ccc(F)c(F)c2F)ccc1=O | – | active: 14.6 µM |
| CC1CCN(C(=O)c2ccc3c(c2NCCO)C(=O)c2ccccc2C3=O)CC1 | – | inconclusive: 4.61 µM [cytotoxic, full curve, poor fit] |
| N=c1sccn1CC(=O)Nc1cc(Cl)ccc1Oc1ccccc1 | – | inconclusive: 32.6 µM [cytotoxic, single point] |
| Cc1ccc(C(=O)/C=C\NCc2ccccc2)cc1 | inactive: 0% | – |
| COC(=O)CCCn1c(-c2ccc(C)cc2)c(C)n2c3c(=O)n(C)c(=O)n(C)c3nc12 | – | inconclusive: 14.6 µM [cytotoxic, partial curve] |
| O=C(CCl)N(Cc1ccccc1)c1ccccc1 | inactive: 0.917% | – |
| Cc1cc(C(F)(F)F)nc(SCCN2CCOCC2)c1C#N | inactive: -22.1% | – |
| CCCOc1ccc(/C(O)=C2\C(=O)C(=O)N(c3ccccn3)C2c2ccccc2F)cc1C (stereo unspecified) | – | active: 18.4 µM |
| O=C(Nc1ccc(N2CCOCC2)c(Cl)c1)c1cc(F)c(F)cc1Cl | – | inconclusive: 32.6 µM [cytotoxic, single point] |
| O=C(NCc1cccs1)C1CCCN(S(=O)(=O)c2cccc3cccnc23)C1 (stereo unspecified) | – | inconclusive: 32.6 µM [rising, single point] |
| CC(C)(C)c1ccc(C(=O)N2CCN(C(=O)C3CCCCC3)CC2)cc1 | – | inconclusive: 9.2 µM [cytotoxic, partial curve] |
| Cc1ccc(C(=O)Nc2cc3ccccc3oc2=O)cc1 | – | active: 4.11 µM |
| CCOc1ccc(NC(=O)c2ccc(CSc3nnc(C)s3)cc2)cc1 | – | inconclusive: 20.6 µM [cytotoxic, single point] |
| Cc1ccc2cc(CN(CC3CCCO3)S(=O)(=O)c3c(C)ccc4nsnc34)c(=O)[nH]c2c1 (stereo unspecified) | inactive: 1.96% | – |
| COc1cc([N+](=O)[O-])ccc1NC(=O)c1nc2ccccc2n(C)c1=O | – | inconclusive: 29.1 µM [rising, single point] |
| Cc1nc2ccccc2n1CC(O)COc1ccc(Br)cc1 (stereo unspecified) | – | active: 13 µM |
| COc1cc(C(C[N+](=O)[O-])c2c(C)[nH]c3ccccc23)cc(OC)c1OC (stereo unspecified) | – | inconclusive: 23.1 µM [cytotoxic, single point] |
| O=C(Nc1cccc(OC(=O)c2cccnc2)c1)c1cccnc1 | inactive: 4.45% | – |

| Compound | activity change, negative = cytotoxicity | Potency |
| --- | --- | --- |
| COc1ccc(Cc2nc(C(=O)Nc3ccc(Cl)cc3)cs2)cc1 | – | inconclusive: 23.1 µM [cytotoxic, single point] |
| CC(C)CC(NC(=O)C1CCC(C)CC1)C(=O)N1CCN(c2ccccn2)CC1 (stereo unspecified) | inactive: -8.66% | – |
| CCN1CCSc2ccc(C(=O)NCc3ccc(F)cc3)cc21 | – | inconclusive: 18.4 µM [cytotoxic, partial curve, poor fit] |
| O=[N+]([O-])c1cccc(S(=O)(=O)Nc2nc3ccccc3nc2Nc2cccc(S(=O)(=O)N3CCCCC3)c2)c1 | – | inconclusive: 29.1 µM [cytotoxic, single point] |
| CC(CCc1ccccn1)(CCc1ccccn1)C(=O)c1ccccc1 | – | inconclusive: 10.3 µM [cytotoxic, single point] |
| Cc1cc(C)n(-c2c(C)[nH]c3ccccc23)n1 | – | inconclusive: 23.1 µM [cytotoxic, partial curve, poor fit] |
| COc1ccccc1NC(=O)c1cccc2c(Br)cccc12 | – | inconclusive: 0.231 µM [rising, full curve, poor fit] |
| Cc1cc(O)ccc1N=Cc1c(C(F)(F)F)[nH][nH]c1=O | – | inconclusive: 32.6 µM [rising, single point] |
| CC1(CC(=O)N/N=C/c2cc(Br)c(O)cc2O)OCCO1 | inconclusive: -28.5% | – |
| Cc1ccc(C)c(-c2nnc(NC(=O)COc3ccccc3)o2)c1 | inactive: 0% | – |
| O=S(=O)(NCCSc1ccccn1)c1ccc(Br)cc1 | inactive: 13.7% | – |
| COCCCN=C1NN=C(c2cc(C)n(Cc3ccccc3Cl)c2C)CS1 | – | active: 1.46 µM |
| Cc1cccc(/C(N)=N/OC(=O)COc2ccccc2Cl)c1 | – | inconclusive: 5.8 µM [rising, full curve] |
| Cc1ccc(/C=N/NC(=O)CSc2nnc(-c3ccc(Cl)cc3)n2-c2ccc(Cl)cc2)o1 | – | inconclusive: 29.1 µM [cytotoxic, single point] |
| CCn1ncc(/C=N\NC(=O)c2ccc3c(c2)c(C)c(C)n3Cc2ccccc2)c1C | – | inconclusive: 32.6 µM [cytotoxic, single point] |
| COc1ccc(NCc2cccn2-c2nnc(N3CCOCC3)s2)cc1OC | – | inconclusive: 29.1 µM [cytotoxic, single point] |
| COc1cc(/C=C/C(=O)NCc2ccccn2)cc(OC)c1OC | inactive: 8.68% | – |
| NC(=S)N/N=C/c1ccc(-c2cc(Cl)ccc2Cl)o1 | – | active: 7.31 µM |
| Cc1nc(CCNC(=O)CC2C(=O)NCCN2Cc2ccc(F)cc2)sc1C (stereo unspecified) | – | inconclusive: 20.6 µM [rising, single point] |
| COc1ccc(CNC(=O)Cn2ncc3c(=O)oc4ccccc4c32)c(OC)c1 | inactive: 12.6% | – |
| O=C(Nc1nc2ccccc2s1)c1cccc(S(=O)(=O)N2CCc3ccccc32)c1 | – | inconclusive: 5.17 µM [cytotoxic, full curve] |
| CN(CC(=O)Nc1ccc(F)c(F)c1)S(=O)(=O)c1cccc2nsnc12 | – | inconclusive: 29.1 µM [cytotoxic, single point] |
| CC(C)c1ccc(OCC(=O)Nc2cc(-c3ccccc3)no2)cc1 | – | inconclusive: 18.4 µM [rising, single point] |

Arranged by molar mass (ascending): part of the list above

| Compound | activity change, negative = cytotoxicity | Potency |
| --- | --- | --- |
| Cc1cc(C)n(-c2c(C)[nH]c3ccccc23)n1 | – | inconclusive: 23.1 µM [cytotoxic, partial curve, poor fit] |
| O=S(=O)(NCCSc1ccccn1)c1ccc(Br)cc1 | inactive: 13.7% | – |
| COc1ccc(NCc2cccn2-c2nnc(N3CCOCC3)s2)cc1OC | – | inconclusive: 29.1 µM [cytotoxic, single point] |
| CCn1ncc(/C=N\NC(=O)c2ccc3c(c2)c(C)c(C)n3Cc2ccccc2)c1C | – | inconclusive: 32.6 µM [cytotoxic, single point] |
| Cc1ccc(/C=N/NC(=O)CSc2nnc(-c3ccc(Cl)cc3)n2-c2ccc(Cl)cc2)o1 | – | inconclusive: 29.1 µM [cytotoxic, single point] |
